PubChem BioAssay AID1508597 | Cure First, 2020

Screen: 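Genes whose silencing sensitises or protects ovarian cancer cells against rucaparib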 (primary screen)
System: human ovarian carcinoma lines grown from tumours: OCI-P5x (papillary serous) and OCI-C5x (clear cell)
Reagent: siRNA pool against human genes, 1.25 pmol siRNA per well
Timing: 72 h or 96 h, depending on the cell culture
Conditions: rucaparib 20 µM (about IC30) or vehicle, present until read-out
Rucaparib or vehicle: Vehicle
Cell line: OCI-P5x (serous)
Measurement: 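ATP luminescence measured at 72 or 96 h according to the culture, then normalised and expressed as percent viability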
Reading the numbers: viability, normalised: higher = more viable cells remaining
Rule for the call: 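Active when normalised viability falls below 80 percent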
Meaning of the calls: active = viability under 80%; inactive = viability 80% or more
This is an unselected part of the about 2,100 reagents, under one of the conditions tested. 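Calls flag viability under 80% in either arm, not effects specific to rucaparib; the reference for percent is not stated.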 Entries without a mark were called inactive. A reagent listed more than once was tested more than once; the source does not tell the runs apart. No sequences are given here. Not given: the 100% reference.

What did the screen give for ARID4A, technical replicate 1?
viability, normalised (%): 69.5 (active)

For ARID4A, technical replicate 2, what does the deposit list?
viability, normalised (%): 73.9 (active)

For ARID4A, technical replicate 3, what does the deposit list?
viability, normalised (%): 72 (active)

For SHPK, technical replicate 1, how do the results read?
viability, normalised (%): 63.3 (active)

What is on record for SHPK, technical replicate 2?
viability, normalised (%): 73.7 (active)

For SHPK, technical replicate 3, what was measured?
viability, normalised (%): 64.8 (active)

With RAD50, technical replicate 1, how do the results read?
viability, normalised (%): 81.2

With RAD50, technical replicate 2, what does the deposit list?
viability, normalised (%): 78.8 (active)

How did the screen score RAD50, technical replicate 3?
viability, normalised (%): 73.7 (active)

For GLYR1, technical replicate 1, how do the results read?
viability, normalised (%): 72.4 (active)

For GLYR1, technical replicate 2, how do the results read?
viability, normalised (%): 86.9

What is on record for GLYR1, technical replicate 3?
viability, normalised (%): 83.4

How did the screen score DDX19B, technical replicate 1?
viability, normalised (%): 49.8 (active)

With DDX19B, technical replicate 2, what does the deposit list?
viability, normalised (%): 52.4 (active)

For DDX19B, technical replicate 3, how do the results read?
viability, normalised (%): 56.7 (active)

Hits, of those listed so far:
ARID4A, technical replicate 1 | viability, normalised (%) = 69.5 (active)
ARID4A, technical replicate 2 | viability, normalised (%) = 73.9 (active)
ARID4A, technical replicate 3 | viability, normalised (%) = 72 (active)
SHPK, technical replicate 1 | viability, normalised (%) = 63.3 (active)
SHPK, technical replicate 2 | viability, normalised (%) = 73.7 (active)
SHPK, technical replicate 3 | viability, normalised (%) = 64.8 (active)
RAD50, technical replicate 2 | viability, normalised (%) = 78.8 (active)
RAD50, technical replicate 3 | viability, normalised (%) = 73.7 (active)
GLYR1, technical replicate 1 | viability, normalised (%) = 72.4 (active)
DDX19B, technical replicate 1 | viability, normalised (%) = 49.8 (active)
DDX19B, technical replicate 2 | viability, normalised (%) = 52.4 (active)
DDX19B, technical replicate 3 | viability, normalised (%) = 56.7 (active)

Additional records follow:
How did the screen score GDPD5, technical replicate 1?
viability, normalised (%): 82.8

Which result is listed for GDPD5, technical replicate 2?
viability, normalised (%): 86.5

How did the screen score GDPD5, technical replicate 3?
viability, normalised (%): 64.6 (active)

How did the screen score PDPK1, technical replicate 1?
viability, normalised (%): 90.8

How did the screen score PDPK1, technical replicate 2?
viability, normalised (%): 86.2

With PDPK1, technical replicate 3, how do the results read?
viability, normalised (%): 88.4

How did the screen score HMGN3, technical replicate 1?
viability, normalised (%): 95.9

For HMGN3, technical replicate 2, what does the deposit list?
viability, normalised (%): 88.7

How did the screen score HMGN3, technical replicate 3?
viability, normalised (%): 93.5

What is on record for TRIO, technical replicate 1?
viability, normalised (%): 114

With TRIO, technical replicate 2, what was measured?
viability, normalised (%): 93.7

With TRIO, technical replicate 3, what does the deposit list?
viability, normalised (%): 76.7 (active)

Which result is listed for SOX21, technical replicate 1?
viability, normalised (%): 28.6 (active)

For SOX21, technical replicate 2, what does the deposit list?
viability, normalised (%): 35.6 (active)

Which result is listed for SOX21, technical replicate 3?
viability, normalised (%): 44 (active)

With PDCD2L, technical replicate 1, how do the results read?
viability, normalised (%): 71 (active)

With PDCD2L, technical replicate 2, what was measured?
viability, normalised (%): 69.4 (active)

What did the screen give for PDCD2L, technical replicate 3?
viability, normalised (%): 79.6 (active)

For HIPK3, technical replicate 1, what does the deposit list?
viability, normalised (%): 85.2

Which result is listed for HIPK3, technical replicate 2?
viability, normalised (%): 41.4 (active)

How did the screen score HIPK3, technical replicate 3?
viability, normalised (%): 79.3 (active)

What did the screen give for LIMK2, technical replicate 1?
viability, normalised (%): 87.9

For LIMK2, technical replicate 1, what does the deposit list?
viability, normalised (%): 84.5

For LIMK2, technical replicate 2, what does the deposit list?
viability, normalised (%): 83.3

For LIMK2, technical replicate 2, how do the results read?
viability, normalised (%): 80.1

With LIMK2, technical replicate 3, what does the deposit list?
viability, normalised (%): 79.4 (active)

Which result is listed for LIMK2, technical replicate 3?
viability, normalised (%): 88.6
